Data published in PubChem BioAssay AID2546 (National Center for Advancing Translational Sciences (NCATS), 2010).
About 11,000 (3.5%) of roughly 310,000 compounds were called active. Only results without a clear call are listed here; the source files them as inconclusive. Calls follow the shape of the dose curve; as a rule, active = well fitted inhibition curve with a large enough effect; inconclusive = small, poorly fitted or top-dose-only effect, or effect the other way; inactive = flat fitted curve, though single readings scatter.

Assay: VP16 counterscreen qHTS for inhibitors of ROR gamma transcriptional activity;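 also: Gal4-VP16 expression switched on by copper sulfate through the metallothionein promoter; nearly all actives have a fitted effect of over 50% in size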
Conditions: Drosophila S2 Gal4-VP16 UAS-luciferase, luminescence, 20 h
Potency is read from the fitted curve at half-maximal effect.

Row | Structure (SMILES) | Potency
1 | Cc1nc2ccc3ccccc3c2o1.O=[N+]([O-])c1cc([N+](=O)[O-])c(O)c([N+](=O)[O-])c1 | inconclusive: 35.5 µM
2 | O=[N+]([O-])c1cc([N+](=O)[O-])c(Nc2ccccn2)c([N+](=O)[O-])c1 | inconclusive: 35.5 µM
3 | CN(C)C(=O)c1c([N+](=O)[O-])cc([N+](=O)[O-])cc1[N+](=O)[O-] | inconclusive: 3.16 µM
4 | CC(C)c1ccc(OP(C)(=O)Nc2ccc(SC(F)(F)F)cc2)cc1 (configuration not stated) | inconclusive: 12.6 µM
5 | CCCCCOc1ccc(NP(C)(=O)Oc2ccc(Cl)cc2Cl)cc1 (configuration not stated) | inconclusive: 35.5 µM
6 | Cc1cc(C)cc(OP(C)(=O)Nc2ccc(SC(F)(F)F)cc2)c1 (configuration not stated) | inconclusive: 31.6 µM
7 | CC(C)(C)c1ccc(OP(C)(=O)Nc2ccc(SC(F)(F)F)cc2)cc1 (configuration not stated) | inconclusive: 17.8 µM
